Test results from publication PMC8118649.
No constants are given. Whether binding was seen depends on the method and setting. Binding seen in cells or lysates may run through a third protein. Some entries that bind do so weakly or less than the wild type. For some assays here: Tags and fused reporters may be left off the sequences shown. Blank lines part the entries; values can stand above or below the molecule they belong to.

How the values were obtained:
[1] = molecular target: T1, Flag-ZNRF1 (zinc and ring finger 1), transiently overexpressed in A549 cells (UniProt Q8ND25); experiment: co-IP; A549 cells expressing empty vector or Flag-ZNRF1, serum-starved overnight, 100 ng/mL EGF for the indicated times; reciprocal immunoprecipitations; lysis buffer 150 mM NaCl, 50 mM Tris-HCl pH 7.5, 2 mM EDTA, 1% Triton X-100, 0.5% NP-40, 10% glycerol
T1 sequence: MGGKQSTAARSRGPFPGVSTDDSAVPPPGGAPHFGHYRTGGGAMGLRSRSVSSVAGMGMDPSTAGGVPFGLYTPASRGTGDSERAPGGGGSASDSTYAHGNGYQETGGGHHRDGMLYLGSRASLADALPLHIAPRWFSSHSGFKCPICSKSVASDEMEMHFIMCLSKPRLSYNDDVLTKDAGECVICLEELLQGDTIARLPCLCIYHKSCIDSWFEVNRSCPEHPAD

[2] = molecular target: epidermal growth factor receptor (EGFR), endogenous in A549 cells (human (endogenous in A549)) (UniProt P00533); experiment: as above
[3] = molecular target: epidermal growth factor receptor (EGFR), endogenous in A549 cells (human (endogenous in A549)) (UniProt P00533); experiment: co-IP; endogenous proteins of A549 cells, serum-starved overnight, with and without 100 ng/mL EGF; EGFR immunoprecipitated; also in cells expressing shLuc or shCBL (Figure 5E); lysis buffer 150 mM NaCl, 50 mM Tris-HCl pH 7.5, 2 mM EDTA, 1% Triton X-100, 0.5% NP-40, 10% glycerol
[4] = molecular target: Myc-tagged full-length EGFR, expressed in HEK293T cells (UniProt P00533); experiment: co-IP; HEK293T cells co-transfected for 48 h with Myc-tagged EGFR (full-length or truncated) and Flag-tagged ZNRF1 (full-length or truncated); immunoprecipitation and immunoblotting with the indicated antibodies
[5] = molecular target: epidermal growth factor receptor (EGFR), endogenous in A549 cells (human (endogenous in A549)) (UniProt P00533); experiment: proximity ligation; A549 cells transfected with Myc-tagged ZNRF1 for 48 h, fixed and permeabilised; antibodies against EGFR and Myc; Duolink In Situ Detection Reagent Red

Molecule: epidermal growth factor receptor (EGFR), endogenous in A549 cells (from UniProt P00533 25-1210)
binding [1]: binds

B2: ZNRF1, endogenous in A549 cells (enzyme, UniProt Q8ND25 1-227)
chain: MGGKQSTAARSRGPFPGVSTDDSAVPPPGGAPHFGHYRTGGGAMGLRSRSVSSVAGMGMDPSTAGGVPFGLYTPASRGTGDSERAPGGGGSASDSTYAHGNGYQETGGGHHRDGMLYLGSRASLADALPLHIAPRWFSSHSGFKCPICSKSVASDEMEMHFIMCLSKPRLSYNDDVLTKDAGECVICLEELLQGDTIARLPCLCIYHKSCIDSWFEVNRSCPEHPAD
binding [3]: binds

B3: Flag-tagged full-length ZNRF1, expressed in HEK293T cells (enzyme, UniProt Q8ND25 1-227)
chain: MGGKQSTAARSRGPFPGVSTDDSAVPPPGGAPHFGHYRTGGGAMGLRSRSVSSVAGMGMDPSTAGGVPFGLYTPASRGTGDSERAPGGGGSASDSTYAHGNGYQETGGGHHRDGMLYLGSRASLADALPLHIAPRWFSSHSGFKCPICSKSVASDEMEMHFIMCLSKPRLSYNDDVLTKDAGECVICLEELLQGDTIARLPCLCIYHKSCIDSWFEVNRSCPEHPAD
binding [4]: binds

Further lines, results first:

binding [2]: binds
B1: Flag-ZNRF1 (zinc and ring finger 1), transiently overexpressed in A549 cells (enzyme, UniProt Q8ND25 1-227)
chain: MGGKQSTAARSRGPFPGVSTDDSAVPPPGGAPHFGHYRTGGGAMGLRSRSVSSVAGMGMDPSTAGGVPFGLYTPASRGTGDSERAPGGGGSASDSTYAHGNGYQETGGGHHRDGMLYLGSRASLADALPLHIAPRWFSSHSGFKCPICSKSVASDEMEMHFIMCLSKPRLSYNDDVLTKDAGECVICLEELLQGDTIARLPCLCIYHKSCIDSWFEVNRSCPEHPAD

binding [5]: binds
B4: Myc-tagged ZNRF1, expressed in A549 cells (enzyme, UniProt Q8ND25 1-227)
chain: MGGKQSTAARSRGPFPGVSTDDSAVPPPGGAPHFGHYRTGGGAMGLRSRSVSSVAGMGMDPSTAGGVPFGLYTPASRGTGDSERAPGGGGSASDSTYAHGNGYQETGGGHHRDGMLYLGSRASLADALPLHIAPRWFSSHSGFKCPICSKSVASDEMEMHFIMCLSKPRLSYNDDVLTKDAGECVICLEELLQGDTIARLPCLCIYHKSCIDSWFEVNRSCPEHPAD
